The format of this data set is in vivo, mouse. The text has this:
These animals are also useful in further delineating useful treatment protocols for the conditions set out above. Transgene construction. […] The 5' primer, [NT], a BglII restriction site and the 3' primer, [NT], contained an SpeI restriction enzyme site. These were used to amplify the entire FLINT and FLAG coding region. The amplified 1.1 kb fragment was ligated into the multiple cloning site of plasmid […]2 generating plasmid […] (6.7 kb). See Fox et al, Eur. J. Pharmacol. 308:195 (1996). The FLINT gene fragment was excised from […] by BglII and SpeI digestion and gel-purified. This fragment then was blunted with Klenow enzyme and ligated into the Klenow-blunted MluI site of plasmid pLIV.7, provided by John Taylor of the J. David Gladstone Institutes. See Fan et al., Proc. Nat'l Acad. Sci. 91:8724 (1994). Resultant plasmid […] also contains the apo E gene promoter/5' flanking region and an hepatic enhancer sequences called the “hepatic control region” (HCR). […] Broad tissue expression was detected in line 6494 progeny by Northern blot, RT-PCR (TaqMan), Western blot and immunohistochemical analysis and was highest in the liver and kidney. High levels of FLINT protein were detected in the circulation of line 6494 mice by ELISA assay; founder level=490 ng/ml; progeny levels ranged from 285-1360 ng/ml (n=6). No endogenous FLINT was detected by these analyses.

B1: FLINT protein: FLINT-FLAG expressed from Apo E promoter/HCR transgene in line 6494 transgenic mice (protein)
chain: VAETPTYPWRDAETGERLVCAQCPPGTFVQRPCRRDSPTTCGPCPPRHYTQFWNYLERCRYCNVLCGEREEEARACHATHNRACRCRTGFFAHAGFCLEHASCPPGAGVIAPGTPSQNTQCQPCPPGTFSASSSSSEQCQPHRNCTALGLALNVPGSSSHDTLCTSCTGFPLSTRVPGAEECERAVIDFVAFQDISIKRLQRLLQALEAPEGWGPTPRAGRAALQLKLRRRLTELLGAQDGALLVRLLQALRVARMPGLERSVRERFLPVH
modifications: glycosylated
notes: FLINT-FLAG expressed from Apo E promoter/HCR transgene in line 6494 transgenic mice
On to B1, for which, under “line 6494 founder”, the “FLINT protein level in the circulation by ELISA, founder” value worked out at 490 ng/mL. In addition, the “FLINT protein level in the circulation by ELISA, progeny” value (line 6494 progeny (n=6)) was in the range of 285 to 1360 ng/mL.

(Values after patent publication US20040167074A1, “Therapeutic applications of mFLINT polypeptides” (priority 1998, published 2004).)
